# Source: the supplement of paper PMC10338343
# ± gives the standard deviation. This is a selection; strong and weak results do not stand in their true shares. The uncertainty is large for many entries.
# System: MILI (PIWIL2) piRISC loaded with piRNA #2 (26 nt)
# Test: pre-steady-state target cleavage rate (min^-1); MIWI and MILI are mouse PIWI proteins and EfPiwi is from a freshwater sponge; tags in brackets are library labels; higher = faster piRNA-guided slicing of the target
# Details: guide: piRNA #2 5'p-UUAGGUAACCCAGUAGAUCCAGAGGA; auxiliary factor: 500 nM mouse GTSF1
# Procedure: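 Cleave-'n-Seq: a library of target RNAs (target site embedded in constant flanks, ACAGCATTCCGCGTTAGTGATATCCG... 5' flank; DNA-blocked outside the site) at 0.1 nM was incubated with 1 nM active mouse MILI or MIWI piRISC (synthetic 5'-monophosphorylated piRNA guide) with or without 500 nM mouse GTSF1 at 33 °C for 1 min to 16 h. Uncleaved targets were sequenced and normalised to non-target controls, and the pooled three trials were fitted to a burst-and-steady-state model to give the pre-steady-state cleavage rate (min^-1; k3 is constrained to at most 1e-4). Sequence is the target site only; target names encode pairing extent (gX:gY) and contiguous / 1-mismatch / 2-mismatch / bulge geometry. Fits with R² ≤ 0 are excluded.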
row,Sequence,pre-steady-state target cleavage rate
1,CUUAAGGAGACCUACUACUGGAGUUACCUAA,0.000181 ± 0.024
2,CUUAAGGACUGGUUCUACUGGGUAACCUAA,0.00462 ± 0.0094
3,CUUAAGGAGACGAUCUAGAGGGUUACCUAA,0.00251 ± 0.0059
4,CUUAAGGAGACCUACUAUUGGGUUACCUAA,0.000354 ± 0.025
5,CUUAUCCUCUGGUAGUACUGGGUUACCUAA,0.103 ± 0.035
6,CUUAUCCUGUGGAUCUACUGGCUUACCUAA,0.000253 ± 0.036
7,CUUAAGGAGACCUUCUACAGGGUUACCUUA,0.00047 ± 0.017
8,CUUAUCCUCUGAAUCUACUGGGUUACCUAA,0.109 ± 0.023
9,CUUAAGGUCUGGAUCUAGUGGGUUACGUAA,0.0114 ± 0.004
10,CUUAAGGAGACGAUCUACUGGGUUACCUCA,0.000979 ± 0.011
11,CUUAAGGAGACCAUCUACUGGCUUACCAAA,0.00022 ± 0.035
12,CUUAAGGAGACCUAGAUGUGGGUUUGCUAA,0.000481 ± 0.018
13,CUUAAGGAGACCAUCUACUGGGUGUACCUAA,0.000541 ± 0.019
14,CUUAAGGAGAGGAUGCUACUGGGUUACCUAA,0.00163 ± 0.007
15,CUUAAGGAGUGGAUCUAUCUGGGUUACCUAA,0.000107 ± 0.048
16,CUUAAGGUCUGGAACUACUGGGUUAGCUAA,0.00906 ± 0.012
17,CUUAAGCUCUGCAUCUACUGGGUUACCUAA,0.0767 ± 0.016
18,CUUAAGGAGUGAGAUCUACUGGGUUACCUAA,0.00234 ± 0.0056
19,CUUAACCUCUGGGAUCUACUGGGUUACCUAA,0.168 ± 0.03
20,CUUAAGGAGACCAUCUACUGGGUUACCUUA,0.000554 ± 0.0096
21,CUUAAGGAGACCUAGAUCUAGGUUACCUAA,0.000241 ± 0.018
22,CUUAAGCUCUGGAUCUACUAGGGUUACCUAA,0.00205 ± 0.0051
23,CUUAAGGAGACCUAGAAUUGGGUUACCUAA,0.000169 ± 0.047
24,CUUAAGGAGACGAUCUACUUGGGUUACCUAA,0.00153 ± 0.0064

row,Sequence,pre-steady-state target cleavage rate
1,CUUAAGGAGACCUACUACUGGGUUACGUAA,0.000454 ± 0.019
2,CUUAAGGAGACGACCUACUGGGUUACCUAA,0.00322 ± 0.0036
3,CUUAAGGAGUGGAUCAACUGGGUUACGUAA,0.000608 ± 0.02
4,CUUAAGGAGAGGAUCUACUGGGAAACCUAA,0.000976 ± 0.0089
5,CUUAAGGACUGGAUCAACUGGGUUAGCUAA,0.00417 ± 0.0081
6,CUUAUCCUGUGGAUCUACUCGGUUACCUAA,0.00114 ± 0.012
7,CUUAUCCUCUGGAUCUACUGGGAUAGCUAA,0.0182 ± 0.0088
8,CUUAAGGACAGGAUCUACUGGGUUACGUAA,0.00127 ± 0.016
9,CUUAAGGACUGCAUCUACAGGGUUACCUAA,0.0435 ± 0.015
10,CUUAAGGAGACCUAGAUGUGGUGUUACCUAA,0.000297 ± 0.021
11,CUUAAGGACUCCUUCUACUGGGUUACCUAA,0.000554 ± 0.013
12,CUUAAGGUCUGGAUCUACUUGGGUUACCUAA,0.000975 ± 0.0071
13,CUUAAGGACUGGAUCUACUUGGUUACCUAA,0.000791 ± 0.016
14,CUUAAGGACUGGAACUACUGGGUAACCUAA,0.00268 ± 0.0097
15,CUUAAGGACUGGAUGUACUGCGUUACCUAA,0.00228 ± 0.011
16,CUUAAGGAGACGAUCUACUGGGUAUACCUAA,0.00159 ± 0.0059
17,CUUAAGGAGUGGAUGUAGUGGGUUACCUAA,0.00193 ± 0.0058
18,CUUAAGGAGACCUAGAUCUGGGUCACCUAA,0.000374 ± 0.033
19,CUUAAGGAGACGAUCUUCUGGGUUACCAAA,0.00122 ± 0.0061
20,CUUAUCCUCUGGAUCUACUCGGUUACGUAA,0.000126 ± 0.1
21,CUUAAGGAGAGGAUCUACUGGGAUACCUAA,0.00208 ± 0.0063
22,CUUAUCCUCUCGUUCUACUGGGUUACCUAA,0.136 ± 0.021
23,CUUAAGGACUGCAUGUACUGGGUUACCUAA,0.00613 ± 0.0099
24,CUUAAGGACUGGAUCUACUGGGAUAGCUAA,0.000162 ± 0.043

# Single values from the entries so far:
# Value for CUUAAGGACUGGAUGUACUGCGUUACCUAA under pre-steady-state target cleavage rate: 0.00228 ± 0.011
# Value for CUUAAGGACUGGAUCUACUGGGAUAGCUAA under pre-steady-state target cleavage rate: 0.000162 ± 0.043
# Value for CUUAAGGAGAGGAUCUACUGGGAAACCUAA under pre-steady-state target cleavage rate: 0.000976 ± 0.0089
# Value for CUUAAGGAGACCUACUACUGGGUUACGUAA under pre-steady-state target cleavage rate: 0.000454 ± 0.019
# Value for CUUAAGGAGACCUAGAUCUGGGUCACCUAA under pre-steady-state target cleavage rate: 0.000374 ± 0.033

# (cont.)

row,Sequence,pre-steady-state target cleavage rate
1,CUUAAGGAGACGAUCAACUGGGAUACCUAA,0.000129 ± 0.038
2,CUUAAGGUCUGGAACUACUGGGUUUCCUAA,0.00266 ± 0.006
3,CUUAAGGAGACCUAGAUGACGGUUACCAUA [g4:g10:cont:t1A],0.000279 ± 0.017
4,CUUAAGGAGACCAUCUACAGCGUUACCUAA,0.000936 ± 0.0066
5,CUUAAGGACUGGAUCUACUGGGUUAGCUUA,0.00119 ± 0.021
6,CUUAUCCUCUGGAUCUGACUGGGUUACCUAA,0.000784 ± 0.022
7,CUUAAGGUCUGGAUCACUGGGUUACCUAA,0.00355 ± 0.0046
8,CUUAAGGAGAGGAACUACUGGGUUACCUAA,0.00185 ± 0.0073
9,CUUAAGGAGAGGAACUACUGGGUUUCCUAA,0.00118 ± 0.0078
10,CUUAAGGAGUGGAUCUUCUGGGUUAGCUAA,0.000372 ± 0.031
11,CUUAAGGACUGGAUCUACUGGUUUACCUAA,0.00208 ± 0.016
12,CUUAAGGAGACGAUCUACUGGGUUAUCUAA,0.00177 ± 0.005
13,CUUAUCCUCUGGAUCAACUGGCUUACCUAA,0.000669 ± 0.016
14,CUUAUCCUCUGUAUCUACUGGGUUACCUAA,0.0865 ± 0.015
15,CUUAUCGUCUCGAUCUACUGGGUUACCUAA,0.0585 ± 0.014
16,CUUAAGGAGACCAACUACUCGGUUACCUAA,0.000152 ± 0.027
17,CUUAAGGAGACCUAGUGCUGGGUUACCUAA,0.000484 ± 0.02
18,CUUAAGGUCUGGAUCUAUCUGGGUUACCUAA,0.000503 ± 0.014
19,CUUAAGGACUGGAAUCUACUGGGUUACCUAA,0.00939 ± 0.0096
20,CUUAACCUCUGGAUCUACUGCGAUACCUAA,0.000935 ± 0.01
21,CUUAAGGAGUGGAACUACUGGGUUACGUAA,0.000343 ± 0.029
22,CUUAAGGAGAGGAUCAUACUGGGUUACCUAA,0.000211 ± 0.024
23,CUUAAGGAGUGGACUCUACUGGGUUACCUAA,0.00389 ± 0.006
24,CUUAUCCUCUGGAUCUACUGGCUUACCUUA,0.00121 ± 0.0074
